Measurements reported in patent US20060094600A1, “Avermectins and avermectin monosaccharides substituted in the 4'-and 4"-position having pesticidal properties” (priority 2003, published 2006).
Some entries share one result that the patent states for a list of compounds. For some assays here: At least one compound was matched to its structure with a doubt left.

Experiments:
Format in all cases: in vivo
Heliothis virescens = assay: Activity against Heliothis virescens (eggs on filter paper); conditions: 12.5 ppm of active compound, 0.8 ml on filter paper, 0- to 24-hour-old eggs, 6 days
Diabrotica balteata = assay: Activity against Diabrotica balteata (sprayed maize seedlings); conditions: 12.5 ppm of active compound, spray on maize seedlings, larvae of the second stage, 6 days
Spodoptera littoralis = assay: Activity against Spodoptera littoralis (sprayed soya bean plants); conditions: 12.5 ppm of active compound, spray on young soya bean plants, caterpillars of the first stage, 3 days
[1] = system: Frankliniella occidentalis; assay: Activity against Frankliniella occidentalis (sprayed bean leaf discs); conditions: 12.5 ppm of active compound, spray on bean leaf discs, mixed population, 10 days
Tetranychus urticae = assay: Activity against Tetranychus urticae (sprayed bean plants); conditions: 12.5 ppm of active compound, spray on young bean plants, mixed population, 25° C., 6 days
Plutella xylostella = assay: Activity against Plutella xylostella caterpillars (sprayed cabbage plants); conditions: 12.5 ppm of active compound, spray on young cabbage plants, caterpillars of the first stage, 3 days

Measured: reduction in the pest population

CCC(C)C1OC2(C=CC1C)CC1CC(CC=C(C)C(OC3CC(OC)C(CCO)C(C)O3)C(C)C=CC=C3COC4C(O)C(C)=CC(C(=O)O1)C34O)O2 (centres unmarked) [Compound 2.2]
more than 80%: all assays above

CCC(C)C1OC2(C=CC1C)CC1CC(CC=C(C)C(OC3CC(OC)C(OC4CC(OC)C(CO)C(C)O4)C(C)O3)C(C)C=CC=C3COC4C(O)C(C)=CC(C(=O)O1)C34O)O2 (centres unmarked) [Compound 2.3]
more than 80%: all assays above

CCC(C)C1OC2(C=CC1C)CC1CC(CC=C(C)C(OC3CC(OC)C(CO)C(C)O3)C(C)C=CC=C3COC4C(O)C(C)=CC(C(=O)O1)C34O)O2 (centres unmarked) [Compound 2.4]
more than 80%: all assays above

C=CCC1C(C)OC(OC2C(C)OC(OC3C(C)=CCC4CC(CC5(C=CC(C)C(C(C)CC)O5)O4)OC(=O)C4C=C(C)C(O)C5OCC(=CC=CC3C)C45O)CC2OC)CC1OC [Compound 5.1, 4″-deoxy-4″-(S)-allyl-avermectin B1]
more than 80%: [1]

C=CCC1C(C)OC(OC2C(C)=CCC3CC(CC4(C=CC(C)C(C(C)CC)O4)O3)OC(=O)C3C=C(C)C(O)C4OCC(=CC=CC2C)C34O)CC1OC [Compound 5.2, 4′-O-(S)-allyl-avermectin B1 monosaccharide]
more than 80%: [1]
